# The supplement of paper PMC8728848
# This is one part of the list.
# How the values were obtained:
# Experiment in all cases: glycan array binding signal (z-score within array); higher = stronger binding
# Conditions in all cases: glycan notation: IUPAC condensed, linker removed
# [1] = target: Neu5Ac(a2-3)Gal(b1-4)GlcNAc(b1-6)[Gal(b1-3)]GalNAc
# Procedure, shortened: (§1)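 Columns mapping to the same glycan were averaged after glycan names were converted to IUPAC-condensed notation. The data come from 3228 arrays in the Consortium for Functional Glycomics database, limited to those with an available protein sequence. Binding is reported as a within-array Z-score averaged across arrays of one protein sequence and across linkers.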
# [2] = target: Neu5Ac(a2-3)Gal(b1-4)GlcNAc(b1-6)[Neu5Ac(a2-3)Gal(b1-3)]GalNAc
# Procedure, shortened: as §1
# [3] = target: Neu5Ac(a2-3)Gal(b1-4)GlcNAc6S
# Procedure, shortened: as §1
# [4] = target: Neu5Ac(a2-3)Gal(b1-4)[Fuc(a1-3)]GlcNAc
# Procedure, shortened: as §1
# [5] = target: Neu5Ac(a2-3)Gal(b1-4)[Fuc(a1-3)]GlcNAc(b1-2)Man
# Procedure, shortened: as §1
# [6] = target: Neu5Ac(a2-3)Gal(b1-4)[Fuc(a1-3)]GlcNAc(b1-3)Gal
# Procedure, shortened: as §1
# [7] = target: Neu5Ac(a2-3)Gal(b1-4)[Fuc(a1-3)]GlcNAc(b1-3)Gal(b1-4)GlcNAc
# Procedure, shortened: as §1
# [8] = target: Neu5Ac(a2-3)Gal(b1-4)[Fuc(a1-3)]GlcNAc(b1-3)Gal(b1-4)[Fuc(a1-3)]GlcNAc(b1-3)Gal(b1-4)[Fuc(a1-3)]GlcNAc
# Procedure, shortened: as §1
# [9] = target: Neu5Ac(a2-3)Gal(b1-4)[Fuc(a1-3)]GlcNAc(b1-3)GalNAc
# Procedure, shortened: as §1
# [10] = target: Neu5Ac(a2-3)Gal(b1-4)[Fuc(a1-3)]GlcNAc(b1-6)[Gal(b1-3)]GalNAc
# Procedure, shortened: as §1
# [11] = target: Neu5Ac(a2-3)Gal(b1-4)[Fuc(a1-3)]GlcNAc(b1-6)[Neu5Ac(a2-3)Gal(b1-3)]GalNAc
# Procedure, shortened: as §1
# [12] = target: Neu5Ac(a2-3)Gal(b1-4)[Fuc(a1-3)]GlcNAc6S
# Procedure, shortened: as §1
# [13] = target: Neu5Ac(a2-3)Gal6S(b1-4)GlcNAc
# Procedure, shortened: as §1
# [14] = target: Neu5Ac(a2-3)Gal6S(b1-4)[Fuc(a1-3)]GlcNAc
# Procedure, shortened: as §1
# Neu5Ac(a2-3)GalNAc = target: Neu5Ac(a2-3)GalNAc
# Procedure, shortened: as §1
# [15] = target: Neu5Ac(a2-3)GalNAc(b1-4)GlcNAc
# Procedure, shortened: as §1
# [16] = target: Neu5Ac(a2-3)[GalNAc(b1-4)]Gal(b1-4)Glc
# Procedure, shortened: as §1
# [17] = target: Neu5Ac(a2-3)[GalNAc(b1-4)]Gal(b1-4)GlcNAc
# Procedure, shortened: as §1
# [18] = target: Neu5Ac(a2-3)[GalNAc(b1-4)]Gal(b1-4)GlcNAc(b1-3)GalNAc
# Procedure, shortened: as §1
# [19] = target: Neu5Ac(a2-3)[Neu5Ac(a2-6)]GalNAc
# Procedure, shortened: as §1
# Neu5Ac(a2-6)Gal = target: Neu5Ac(a2-6)Gal
# Procedure, shortened: as §1
# [20] = target: Neu5Ac(a2-6)Gal(b1-3)GlcNAc(b1-3)[Gal(b1-4)GlcNAc(b1-6)]Gal(b1-4)Glc
# Procedure, shortened: as §1
# Neu5Ac(a2-6)Gal(b1-4)Glc = target: Neu5Ac(a2-6)Gal(b1-4)Glc
# Procedure, shortened: as §1
# [21] = target: Neu5Ac(a2-6)Gal(b1-4)GlcNAc
# Procedure, shortened: as §1
# [22] = target: Neu5Ac(a2-6)Gal(b1-4)GlcNAc(b1-2)Man
# Procedure, shortened: as §1
# [23] = target: Neu5Ac(a2-6)Gal(b1-4)GlcNAc(b1-2)Man(a1-3)Man(b1-4)GlcNAc(b1-4)GlcNAc
# Procedure, shortened: as §1
# [24] = target: Neu5Ac(a2-6)Gal(b1-4)GlcNAc(b1-2)Man(a1-3)[Gal(b1-4)GlcNAc(b1-2)Man(a1-6)]Man(b1-4)GlcNAc(b1-4)GlcNAc
# Procedure, shortened: as §1
# [25] = target: Neu5Ac(a2-6)Gal(b1-4)GlcNAc(b1-2)Man(a1-3)[GlcNAc(b1-2)Man(a1-6)]Man(b1-4)GlcNAc(b1-4)GlcNAc
# Procedure, shortened: as §1
# [26] = target: Neu5Ac(a2-6)Gal(b1-4)GlcNAc(b1-2)Man(a1-3)[GlcNAc(b1-4)][Neu5Ac(a2-6)Gal(b1-4)GlcNAc(b1-2)Man(a1-6)]Man(b1-4)GlcNAc(b1-4)GlcNAc
# Procedure, shortened: as §1
# [27] = target: Neu5Ac(a2-6)Gal(b1-4)GlcNAc(b1-2)Man(a1-3)[Man(a1-6)]Man(b1-4)GlcNAc(b1-4)GlcNAc
# Procedure, shortened: as §1
# [28] = target: Neu5Ac(a2-6)Gal(b1-4)GlcNAc(b1-2)Man(a1-3)[Neu5Ac(a2-3)Gal(b1-4)GlcNAc(b1-2)Man(a1-6)]Man(b1-4)GlcNAc(b1-4)GlcNAc
# Procedure, shortened: as §1
# [29] = target: Neu5Ac(a2-6)Gal(b1-4)GlcNAc(b1-2)Man(a1-3)[Neu5Ac(a2-6)Gal(b1-4)GlcNAc(b1-2)Man(a1-6)]Man(b1-4)GlcNAc(b1-4)GlcNAc
# Procedure, shortened: as §1
# [30] = target: Neu5Ac(a2-6)Gal(b1-4)GlcNAc(b1-2)Man(a1-3)[Neu5Ac(a2-6)Gal(b1-4)GlcNAc(b1-2)Man(a1-6)]Man(b1-4)GlcNAc(b1-4)[Fuc(a1-6)]GlcNAc
# Procedure, shortened: as §1
# [31] = target: Neu5Ac(a2-6)Gal(b1-4)GlcNAc(b1-2)Man(a1-6)Man(b1-4)GlcNAc(b1-4)GlcNAc
# Procedure, shortened: as §1
# [32] = target: Neu5Ac(a2-6)Gal(b1-4)GlcNAc(b1-2)Man(a1-6)[Gal(b1-4)GlcNAc(b1-2)Man(a1-3)]Man(b1-4)GlcNAc(b1-4)GlcNAc
# Procedure, shortened: as §1
# [33] = target: Neu5Ac(a2-6)Gal(b1-4)GlcNAc(b1-2)Man(a1-6)[GlcNAc(b1-2)Man(a1-3)]Man(b1-4)GlcNAc(b1-4)GlcNAc
# Procedure, shortened: as §1
# [34] = target: Neu5Ac(a2-6)Gal(b1-4)GlcNAc(b1-2)Man(a1-6)[Man(a1-3)]Man(b1-4)GlcNAc(b1-4)GlcNAc
# Procedure, shortened: as §1
# [35] = target: Neu5Ac(a2-6)Gal(b1-4)GlcNAc(b1-2)[Neu5Ac(a2-6)Gal(b1-4)GlcNAc(b1-4)]Man(a1-3)[GlcNAc(b1-4)][Neu5Ac(a2-6)Gal(b1-4)GlcNAc(b1-2)[Neu5Ac(a2-6)Gal(b1-4)GlcNAc(b1-6)]Man(a1-6)]Man(b1-4)GlcNAc(b1-4)GlcNAc
# Procedure, shortened: as §1
# [36] = target: Neu5Ac(a2-6)Gal(b1-4)GlcNAc(b1-2)[Neu5Ac(a2-6)Gal(b1-4)GlcNAc(b1-4)]Man(a1-3)[GlcNAc(b1-4)][Neu5Ac(a2-6)Gal(b1-4)GlcNAc(b1-4)Man(a1-6)]Man(b1-4)GlcNAc(b1-4)GlcNAc
# Procedure, shortened: as §1
# [37] = target: Neu5Ac(a2-6)Gal(b1-4)GlcNAc(b1-2)[Neu5Ac(a2-6)Gal(b1-4)GlcNAc(b1-6)]Man(a1-6)[Neu5Ac(a2-6)Gal(b1-4)GlcNAc(b1-2)Man(a1-3)][GlcNAc(b1-4)]Man(b1-4)GlcNAc(b1-4)GlcNAc
# Procedure, shortened: as §1
# [38] = target: Neu5Ac(a2-6)Gal(b1-4)GlcNAc(b1-3)Gal(b1-3)GlcNAc
# Procedure, shortened: as §1
# [39] = target: Neu5Ac(a2-6)Gal(b1-4)GlcNAc(b1-3)Gal(b1-4)GlcNAc
# Procedure, shortened: as §1
# [40] = target: Neu5Ac(a2-6)Gal(b1-4)GlcNAc(b1-3)Gal(b1-4)GlcNAc(b1-2)Man(a1-3)[Neu5Ac(a2-6)Gal(b1-4)GlcNAc(b1-3)Gal(b1-4)GlcNAc(b1-2)Man(a1-6)]GalNAc
# Procedure, shortened: as §1
# [41] = target: Neu5Ac(a2-6)Gal(b1-4)GlcNAc(b1-3)Gal(b1-4)GlcNAc(b1-3)Gal(b1-4)GlcNAc
# Procedure, shortened: as §1
# [42] = target: Neu5Ac(a2-6)Gal(b1-4)GlcNAc(b1-3)Gal(b1-4)GlcNAc(b1-3)Gal(b1-4)GlcNAc(b1-2)Man(a1-3)[Neu5Ac(a2-6)Gal(b1-4)GlcNAc(b1-3)Gal(b1-4)GlcNAc(b1-3)Gal(b1-4)GlcNAc(b1-2)Man(a1-6)]GalNAc
# Procedure, shortened: as §1
binder,measurement,setting,value
Blon0732mut (Bifidobacterium longum) (protein) MPTSEHKADDATRHLTLIPAPVTLEYTHGTALIGPLVTIEDADQSWETLPIEQLSDELRHRYGVTVLRRRTHGTVISLGLDSRLAHDEYTLDVSESEGIRVRGGGESGLRYGLQTLRQIIGQTSRAIPCLHIQDKPAFAVRAYSLDVTRGRVPTMEFLTWFVDQLALYKYNQFQLYVEHAFAFVELSEAWRGTDPLTAADITYLDEYCARRGIELVPSLATFGHMYMNLRTREHRGLGEFPEDADRPFSFIERMEHHTLNAADPKAHDFASRLIEEYAPLFRSKSFNIGGNETFDLGRGRSAQDAPEAGRDELYAGFVRDLCETLARHGRQPMLWADIALESPRTMDLLPGDITMLNWMYEPQIDESKIQTIATQGRRQFVCPAVRAWSRFFPDYAGAWLNTYHMALAGTKYDAEGMVVTDWGDYGHVNDPRLSVPGLCYGAQNAWNPIEIDAHEMNRRISALVYGDESGRIMDCLARIDSDGVSFPWDLAVQVLELEYGSGTGALNMDVAACMERSSGGKLTLDRTLGCDDARRRMLQWNRERIERRRDCDQVLRDCGDAFAGLDKGGLTAEFLSVMLDGQRLFNELGEELLALADGKDVGSGANRLAADLELWFERYRAQWLSVGRHAELARIAHVVWSLADILRRGAL,glycan array binding signal (z-score),[1],-0.59
same,glycan array binding signal (z-score),[2],-0.762
same,glycan array binding signal (z-score),[3],-0.117
same,glycan array binding signal (z-score),[4],0.086
same,glycan array binding signal (z-score),[5],-0.353
same,glycan array binding signal (z-score),[6],-0.303
same,glycan array binding signal (z-score),[7],-0.082
same,glycan array binding signal (z-score),[8],-0.236
same,glycan array binding signal (z-score),[9],2.5
same,glycan array binding signal (z-score),[10],0.262
same,glycan array binding signal (z-score),[11],-0.574
same,glycan array binding signal (z-score),[12],0.259
same,glycan array binding signal (z-score),[13],-0.041
same,glycan array binding signal (z-score),[14],-0.326
same,glycan array binding signal (z-score),Neu5Ac(a2-3)GalNAc,-1.08
same,glycan array binding signal (z-score),[15],-0.99
same,glycan array binding signal (z-score),[16],-0.039
same,glycan array binding signal (z-score),[17],-0.956
same,glycan array binding signal (z-score),[18],-0.009
same,glycan array binding signal (z-score),[19],0.415
same,glycan array binding signal (z-score),Neu5Ac(a2-6)Gal,-0.088
same,glycan array binding signal (z-score),[20],0.143
same,glycan array binding signal (z-score),Neu5Ac(a2-6)Gal(b1-4)Glc,-0.105
same,glycan array binding signal (z-score),[21],0.155
same,glycan array binding signal (z-score),[22],0.009
same,glycan array binding signal (z-score),[23],1.73
same,glycan array binding signal (z-score),[24],0.038
same,glycan array binding signal (z-score),[25],-0.737
same,glycan array binding signal (z-score),[26],-0.459
same,glycan array binding signal (z-score),[27],-0.462
same,glycan array binding signal (z-score),[28],0.194
same,glycan array binding signal (z-score),[29],0.107
same,glycan array binding signal (z-score),[30],0.382
same,glycan array binding signal (z-score),[31],-0.639
same,glycan array binding signal (z-score),[32],-0.7
same,glycan array binding signal (z-score),[33],0.435
same,glycan array binding signal (z-score),[34],-1.08
same,glycan array binding signal (z-score),[35],-0.469
same,glycan array binding signal (z-score),[36],-0.948
same,glycan array binding signal (z-score),[37],-0.827
same,glycan array binding signal (z-score),[38],-0.499
same,glycan array binding signal (z-score),[39],-1.14
same,glycan array binding signal (z-score),[40],0.56
same,glycan array binding signal (z-score),[41],-1.1
same,glycan array binding signal (z-score),[42],-0.371

# Some of the entries above in a different format.
binder	measurement	setting	value
Blon0732mut (Bifidobacterium longum) (protein) MPTSEHKADDATRHLTLIPAPVTLEYTHGTALIGPLVTIEDADQSWETLPIEQLSDELRHRYGVTVLRRRTHGTVISLGLDSRLAHDEYTLDVSESEGIRVRGGGESGLRYGLQTLRQIIGQTSRAIPCLHIQDKPAFAVRAYSLDVTRGRVPTMEFLTWFVDQLALYKYNQFQLYVEHAFAFVELSEAWRGTDPLTAADITYLDEYCARRGIELVPSLATFGHMYMNLRTREHRGLGEFPEDADRPFSFIERMEHHTLNAADPKAHDFASRLIEEYAPLFRSKSFNIGGNETFDLGRGRSAQDAPEAGRDELYAGFVRDLCETLARHGRQPMLWADIALESPRTMDLLPGDITMLNWMYEPQIDESKIQTIATQGRRQFVCPAVRAWSRFFPDYAGAWLNTYHMALAGTKYDAEGMVVTDWGDYGHVNDPRLSVPGLCYGAQNAWNPIEIDAHEMNRRISALVYGDESGRIMDCLARIDSDGVSFPWDLAVQVLELEYGSGTGALNMDVAACMERSSGGKLTLDRTLGCDDARRRMLQWNRERIERRRDCDQVLRDCGDAFAGLDKGGLTAEFLSVMLDGQRLFNELGEELLALADGKDVGSGANRLAADLELWFERYRAQWLSVGRHAELARIAHVVWSLADILRRGAL	glycan array binding signal (z-score)	[8]	-0.236
same	glycan array binding signal (z-score)	[9]	2.5
same	glycan array binding signal (z-score)	[10]	0.262
same	glycan array binding signal (z-score)	[11]	-0.574
